Plain letter strings leave the end groups untold.
Assay: peptide synthesis
Settings: whole synthesis

CGQREAPAGAAAKPWYC
final HPLC purity: 95%

From patent US9802985B2 (APEPTICO FORSCHUNG UND E[…], priority 2012, dated 2017)
